These are yes or no findings as the source states them, for the method shown. In cells and extracts the contact can be indirect. A yes stands for co-enrichment or nearness to the bait. Other partners may have been found. For some assays here: Where a sequence is shown, tags or fusion partners need not be part of it.
Columns and labels:
[1] = biological target: T1, GFP-ULK1 (Unc-51-like kinase 1, full-length) (human) (UniProt O75385); experiment: affinity purification with mass spectrometry; co-immunopurification of inducible GFP-ULK1 from Flp-In T-REx 293 cells and mass spectrometry
T1 sequence: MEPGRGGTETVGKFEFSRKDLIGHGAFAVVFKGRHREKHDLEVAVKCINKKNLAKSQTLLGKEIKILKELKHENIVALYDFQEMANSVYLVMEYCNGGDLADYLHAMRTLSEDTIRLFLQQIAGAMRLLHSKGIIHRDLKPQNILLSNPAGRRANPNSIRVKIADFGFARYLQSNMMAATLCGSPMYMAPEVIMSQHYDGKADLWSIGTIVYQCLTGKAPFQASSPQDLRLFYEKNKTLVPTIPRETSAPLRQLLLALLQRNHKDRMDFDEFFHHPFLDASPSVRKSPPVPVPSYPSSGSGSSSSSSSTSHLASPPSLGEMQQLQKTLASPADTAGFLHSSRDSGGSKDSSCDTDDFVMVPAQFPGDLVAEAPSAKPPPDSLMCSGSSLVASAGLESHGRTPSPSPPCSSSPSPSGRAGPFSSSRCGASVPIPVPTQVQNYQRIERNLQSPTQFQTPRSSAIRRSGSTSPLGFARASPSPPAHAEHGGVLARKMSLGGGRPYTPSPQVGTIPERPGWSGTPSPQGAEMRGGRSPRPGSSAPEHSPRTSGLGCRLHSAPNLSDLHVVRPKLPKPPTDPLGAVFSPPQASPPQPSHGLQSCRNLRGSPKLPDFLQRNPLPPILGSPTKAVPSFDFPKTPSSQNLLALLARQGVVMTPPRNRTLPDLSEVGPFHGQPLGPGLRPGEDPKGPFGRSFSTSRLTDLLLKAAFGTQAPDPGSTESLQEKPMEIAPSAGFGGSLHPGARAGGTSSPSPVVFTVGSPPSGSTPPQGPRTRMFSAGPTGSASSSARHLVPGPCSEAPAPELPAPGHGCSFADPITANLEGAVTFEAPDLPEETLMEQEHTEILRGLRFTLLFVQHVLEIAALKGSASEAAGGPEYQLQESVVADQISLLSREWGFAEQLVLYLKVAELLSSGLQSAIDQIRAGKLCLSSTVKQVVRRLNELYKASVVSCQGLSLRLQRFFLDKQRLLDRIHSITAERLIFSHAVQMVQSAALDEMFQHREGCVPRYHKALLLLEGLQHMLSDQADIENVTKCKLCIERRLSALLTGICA

By UniProt entry, the sequences of proteins in these tests, tags left out.
UniProt O14744: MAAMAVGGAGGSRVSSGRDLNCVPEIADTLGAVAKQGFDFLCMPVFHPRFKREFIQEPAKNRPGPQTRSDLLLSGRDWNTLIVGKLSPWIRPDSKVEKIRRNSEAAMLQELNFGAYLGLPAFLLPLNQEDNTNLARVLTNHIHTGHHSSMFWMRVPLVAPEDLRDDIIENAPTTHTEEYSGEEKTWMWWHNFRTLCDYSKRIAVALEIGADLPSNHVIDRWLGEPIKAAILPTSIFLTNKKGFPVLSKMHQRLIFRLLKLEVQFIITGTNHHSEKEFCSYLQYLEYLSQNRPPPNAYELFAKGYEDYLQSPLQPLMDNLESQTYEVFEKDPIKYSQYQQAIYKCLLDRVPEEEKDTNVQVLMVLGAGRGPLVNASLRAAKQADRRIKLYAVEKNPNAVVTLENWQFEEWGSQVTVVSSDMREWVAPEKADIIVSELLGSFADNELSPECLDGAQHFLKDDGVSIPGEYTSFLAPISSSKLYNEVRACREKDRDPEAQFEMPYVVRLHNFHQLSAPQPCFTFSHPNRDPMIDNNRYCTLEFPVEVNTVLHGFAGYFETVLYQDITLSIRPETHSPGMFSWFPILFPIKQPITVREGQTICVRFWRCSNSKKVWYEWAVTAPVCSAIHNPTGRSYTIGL
UniProt P62318: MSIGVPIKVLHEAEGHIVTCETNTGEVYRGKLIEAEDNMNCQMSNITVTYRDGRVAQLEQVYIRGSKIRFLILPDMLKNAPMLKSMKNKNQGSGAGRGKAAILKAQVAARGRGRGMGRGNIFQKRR
UniProt Q9BQA1: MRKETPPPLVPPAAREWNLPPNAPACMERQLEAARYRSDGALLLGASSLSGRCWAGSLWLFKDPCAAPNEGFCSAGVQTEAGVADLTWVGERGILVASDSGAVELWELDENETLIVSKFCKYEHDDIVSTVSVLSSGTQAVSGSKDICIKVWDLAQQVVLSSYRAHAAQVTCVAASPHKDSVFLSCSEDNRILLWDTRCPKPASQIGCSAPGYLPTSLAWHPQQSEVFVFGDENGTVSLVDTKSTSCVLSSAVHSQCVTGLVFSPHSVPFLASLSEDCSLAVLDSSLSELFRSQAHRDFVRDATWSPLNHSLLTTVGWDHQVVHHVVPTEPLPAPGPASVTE

[2] = biological target: GST-pICln S193, 195, 197A (phospho-inactivating alanine mutant) (human) (UniProt P54105); experiment: affinity purification with mass spectrometry; 5 μg GST-pICln wt or mutants incubated with 1 mg HEK293T S100 extract overnight at 4°C, glutathione sepharose 4B for 4 h, on-bead digestion, relative quantification by LC-MS/MS normalised to pICln; only the target purified
[3] = biological target: GST-pICln wild type (human) (UniProt P54105); experiment: as above
[4] = biological target: GST-pICln S193, 195, 197D (phospho-mimicking aspartate mutant) (human) (UniProt P54105); experiment: as above

Row | Substance | binding [1] | binding [2] | binding [3] | binding [4]
1 | Protein arginine N-methyltransferase 5 (PRMT5), endogenous (from UniProt O14744 1-637) (enzyme) | binds | – | – | –
2 | SmD2, endogenous (from UniProt P62316 1-118) | – | binds | binds | –
3 | SmD3, endogenous (from UniProt P62318 1-126) | – | binds | binds | binds
4 | chloride conductance regulatory protein (pICln), endogenous (from UniProt P54105 1-237) | binds | – | – | –
5 | methylosome protein 50 (MEP50/WD45), endogenous (from UniProt Q9BQA1 1-342) | binds | – | – | –

— publication PMC8216288
